Test results published in PubChem BioAssay AID248 (DTP/NCI, 2004).
The list does not hold the whole screen: it is rich in T/C values a quarter to a half above the control, in often repeated tests (any T/C) and in doses without a T/C. Further doses and runs are listed elsewhere. T/C gives the treated animals as a percentage of the vehicle group. Some doses have a count of surviving animals in place of a T/C: the source files T/C as zero there, which appears to mark a toxic dose or a test without result, not a measured value. Some doses without a T/C left all or most animals alive at the check, yet need not have been tolerated: the source hardly ever lists a survival T/C far under the control, and the zero likely stands for such cases as well. Survivors were counted at the toxicity check, usually on the fifth day, unless a day is given; later deaths do not show. Schedules are NCI's codes, taken here to give the interval after Q, in days (D) or hours (H), and the number of doses after X. Some doses were run more than once; the values are given in rising order. For survival time, this PubChem deposit counts one and a half times the control or more as active, and values a quarter to a half above the control carry no call in these data; other NCI protocols may use other cut-offs.

Test system: L1210 leukemia ip in BDF1 mice, survival T/C
Test: NCI In Vivo Anticancer Drug Screen. Data for tumor model L1210 Leukemia (intraperitoneal) in B6D2F1 (BDF1) mice
Details: T/C endpoint: mean survival time, higher T/C = longer survival
[1] = dose: 400.0 mg/kg/injection, schedule: Q04DX003 (ip), vehicle: saline with Tween-80
[2] = dose: 200.0 mg/kg/injection, schedule: Q04DX003 (ip), vehicle: saline
[3] = dose: 400.0 mg/kg/injection, schedule: Q04DX003 (ip), vehicle: saline
[4] = dose: 100.0 mg/kg/injection, schedule: Q01DX001 (ip), vehicle: saline
[5] = dose: 100.0 mg/kg/injection, schedule: Q04DX003 (ip), vehicle: saline with Tween-80
[6] = dose: 200.0 mg/kg/injection, schedule: Q01DX001 (ip), vehicle: saline
[7] = dose: 200.0 mg/kg/injection, schedule: Q04DX003 (ip), vehicle: saline with Tween-80
[8] = dose: 400.0 mg/kg/injection, schedule: Q01DX001 (ip), vehicle: saline
[9] = dose: 100.0 mg/kg/injection, schedule: Q04DX003 (ip), vehicle: saline
[10] = dose: 400.0 mg/kg/injection, schedule: Q04DX002 (ip), vehicle: saline with Tween-80
[11] = dose: 40.0 mg/kg/injection, schedule: Q01DX001 (ip), vehicle: saline
[12] = dose: 75.0 mg/kg/injection, schedule: Q01DX001 (ip), vehicle: saline
[13] = dose: 150.0 mg/kg/injection, schedule: Q01DX001 (ip), vehicle: saline
[14] = dose: 300.0 mg/kg/injection, schedule: Q01DX001 (ip), vehicle: saline
[15] = dose: 200.0 mg/kg/injection, schedule: Q04DX003 (ip), vehicle: Klucel (hydroxypropylcellulose) (HPC)
[16] = dose: 400.0 mg/kg/injection, schedule: Q04DX003 (ip), vehicle: Klucel (hydroxypropylcellulose) (HPC)
[17] = dose: 400.0 mg/kg/injection, schedule: Q01DX009 (ip), vehicle: saline with Tween-80
[18] = dose: 200.0 mg/kg/injection, schedule: Q04DX002 (ip), vehicle: saline
[19] = dose: 400.0 mg/kg/injection, schedule: Q04DX002 (ip), vehicle: saline
[20] = dose: 100.0 mg/kg/injection, schedule: Q04DX003 (ip), vehicle: Klucel (hydroxypropylcellulose) (HPC)

**Q.** How did the survivor count [1] turn out when `Cn1ccoc1=NC1CCCCC1` was run?
**A.** 5 of 6

**Q.** Which results are given for `CCC(C#N)=C1CCCCC1`?
**A.** survivor count [2]: 6 of 6; survivor count [3]: 6 of 6

**Q.** For `CC(C)=CCC/C(C)=C/CNc1ncnc2nc[nH]c12`, which survivor count (dose: 400.0 mg/kg/injection, schedule: Q04DX003 (ip), vehicle: acetone) is on record?
**A.** 0 of 6

**Q.** For `N#C/C(=C/c1ccccc1)C(=O)O`, which survivor count (dose: 400.0 mg/kg/injection, schedule: Q01DX001 (ip), vehicle: carboxymethylcellulose (CMC)) is on record?
**A.** 0 of 4

**Q.** Which survivor count (dose: 50.0 mg/kg/injection, schedule: Q04DX003 (ip), vehicle: saline with Tween-80) does the source give for `Nc1nc(CCCCc2ccc(NC(=O)CBr)cc2)c(CCCCc2ccccc2)c(=O)[nH]1` here?
**A.** 6 of 6

**Q.** And the survivor count [4]?
**A.** 2 of 6

**Q.** What about the survivor count [5] of the same compound?
**A.** 3 of 6

**Q.** What about the survivor count [6] of the same compound?
**A.** 0 of 4

**Q.** And the survivor count [7]?
**A.** 1 of 6

**Q.** What about the survivor count [8] of the same compound?
**A.** 0 of 4

**Q.** And the survivor count [1]?
**A.** 0 of 6

**Q.** Which survivor count [9] does the source give for `c1ccc(COCc2ccccc2Cn2ccnc2)cc1` here?
**A.** 4 of 6

**Q.** And the survivor count [2]?
**A.** 0 of 6

**Q.** And the survivor count [3]?
**A.** 0 of 6

**Q.** What does the source list for `CCCCCC[As](=O)(O)O`?
**A.** survivor count (dose: 12.5 mg/kg/injection, schedule: Q01DX001 (ip), vehicle: carboxymethylcellulose (CMC)): 1 of 4; survivor count (dose: 25.0 mg/kg/injection, schedule: Q01DX001 (ip), vehicle: carboxymethylcellulose (CMC)): 0 of 4; survivor count (dose: 50.0 mg/kg/injection, schedule: Q01DX001 (ip), vehicle: carboxymethylcellulose (CMC)): 0 of 4

**Q.** How did the survivor count (dose: 300.0 mg/kg/injection, schedule: Q04DX003 (ip), vehicle: saline with Tween-80) turn out when `CCOC(=O)Cn1c2ccccc2c2cc3c(C)nccc3c(C)c21` was run?
**A.** 5 of 10

**Q.** `CNC(CNC(CO)CC(C)C)Cc1ccc(OCc2ccccc2)cc1` (configuration not stated) was tested. Which survivor count (dose: 100.0 mg/kg/injection, schedule: Q01DX009 (ip), vehicle: saline) did it give?
**A.** 4 of 6

**Q.** What about the survivor count [9] of the same compound?
**A.** 1 of 6

**Q.** What about the survivor count [2] of the same compound?
**A.** 1 of 6

**Q.** And the survivor count [3]?
**A.** 0 of 6

**Q.** `CCOC(=O)/C=C/Sc1ccccc1` was tested. Which survivor count (dose: 100.0 mg/kg/injection, schedule: Q04DX002 (ip), vehicle: saline with Tween-80) did it give?
**A.** 1 of 3

**Q.** And the survivor count (dose: 200.0 mg/kg/injection, schedule: Q04DX002 (ip), vehicle: saline with Tween-80)?
**A.** 0 of 3

**Q.** And the survivor count [10]?
**A.** 0 of 3

**Q.** For `CCCC[As](=O)(O)CCO`, which survivor count [5] is on record?
**A.** 0 of 6 and 1 of 6

**Q.** What about the survivor count [7] of the same compound?
**A.** 0 of 6

**Q.** What about the survivor count [1] of the same compound?
**A.** 0 of 6

**Q.** What does the source list for `CSc1nc2ccc(S(=O)(=O)O)cc2s1`?
**A.** survivor count (dose: 100.0 mg/kg/injection, schedule: Q01DX009 (ip), vehicle: Klucel (hydroxypropylcellulose) (HPC)): 6 of 6; survivor count (dose: 200.0 mg/kg/injection, schedule: Q01DX009 (ip), vehicle: Klucel (hydroxypropylcellulose) (HPC)): 6 of 6; survivor count (dose: 400.0 mg/kg/injection, schedule: Q01DX009 (ip), vehicle: Klucel (hydroxypropylcellulose) (HPC)): 0 of 6

**Q.** Which survivor count [6] does the source give for `CCCCC(/C=C/c1ccc2ccccc2n1)CC` (configuration not stated) here?
**A.** 2 of 4

**Q.** What about the survivor count [8] of the same compound?
**A.** 0 of 4

**Q.** `CC(C)(CO)N=Cc1ccccc1O.CC(C)(CO)N=Cc1ccccc1O.[Co]` was tested. Which survivor count [4] did it give?
**A.** 1 of 6

**Q.** How did the survivor count (dose: 80.0 mg/kg/injection, schedule: Q01DX001 (ip), vehicle: saline) turn out when `CC1(C)N=C(N)N=C(N)N1c1cccc(OCc2cccc([N+](=O)[O-])c2)c1` was run?
**A.** 0 of 4

**Q.** And the survivor count [6]?
**A.** 2 of 4

**Q.** And the survivor count [8]?
**A.** 0 of 4

**Q.** With `O=C1c2cc([N+](=O)[O-])ccc2-c2c1cccc2[N+](=O)[O-]` as the compound, how does the survivor count (dose: 75.0 mg/kg/injection, schedule: Q01DX001 (ip), vehicle: Klucel (hydroxypropylcellulose) (HPC)) read?
**A.** 6 of 6

**Q.** What about the survivor count (dose: 150.0 mg/kg/injection, schedule: Q01DX001 (ip), vehicle: Klucel (hydroxypropylcellulose) (HPC)) of the same compound?
**A.** 6 of 6

**Q.** With `O=C(O)CC(CS(=O)O)C(=O)O` (configuration not stated) as the compound, how does the survivor count (dose: 200.0 mg/kg/injection, schedule: Q01DX001 (ip), vehicle: saline with Tween-80) read?
**A.** 1 of 3

**Q.** And the survivor count (dose: 400.0 mg/kg/injection, schedule: Q01DX001 (ip), vehicle: saline with Tween-80)?
**A.** 0 of 3

**Q.** With `O=[N+]([O-])c1ccc([As+](c2ccccc2)(c2ccccc2)c2ccccc2)cc1` as the compound, how does the survivor count [11] read?
**A.** 6 of 6

**Q.** And the survivor count [12]?
**A.** 6 of 6

**Q.** What about the survivor count [13] of the same compound?
**A.** 0 of 6

**Q.** And the survivor count [14]?
**A.** 0 of 6

**Q.** For `CCC(CC)(C(=O)O)C(=O)O`, which survivor count [15] is on record?
**A.** 6 of 6

**Q.** What about the survivor count [16] of the same compound?
**A.** 2 of 6

**Q.** Which results are given for `CCOC(=O)c1ccc(Nc2nnc(-c3ccccc3Cl)s2)cc1`?
**A.** survivor count (dose: 50.0 mg/kg/injection, schedule: Q04DX002 (ip), vehicle: gum acacia): 3 of 3; survivor count (dose: 100.0 mg/kg/injection, schedule: Q04DX002 (ip), vehicle: gum acacia): 3 of 3

**Q.** Which results are given for `S=C1N/N=C/NN/C=N/N1`?
**A.** survivor count [11]: 0 of 6; survivor count [12]: 0 of 6; survivor count [13]: 0 of 6; survivor count [14]: 0 of 6

**Q.** Which survivor count [17] does the source give for `CC(C)(C)OC(=O)NC(CSCc1ccccc1)C(=O)O` (configuration not stated) here?
**A.** 4 of 6

**Q.** With `Cc1ccc2c(N=Nc3ccc(N(C)C)cc3)cccc2n1` as the compound, how does the survivor count (dose: 100.0 mg/kg/injection, schedule: Q01DX009 (ip), vehicle: saline with Tween-80) read?
**A.** 6 of 6

**Q.** And the survivor count (dose: 200.0 mg/kg/injection, schedule: Q01DX009 (ip), vehicle: saline with Tween-80)?
**A.** 6 of 6

**Q.** And the survivor count [17]?
**A.** 0 of 6

**Q.** Which survivor count (dose: 400.0 mg/kg/injection, schedule: Q01DX009 (ip), vehicle: saline) does the source give for `CCN(CC)C(=O)N1CCCCC1` here?
**A.** 0 of 3

**Q.** What does the source list for `CC1CN1P(=O)(N1CC1C)N1CC1C.CC1CN1P(=O)(N1CC1C)N1CC1C.CC1CN1P(=O)(N1CC1C)N1CC1C.CC1CN1P(=O)(N1CC1C)N1CC1C.[Cu+2].[O-][Cl+3]([O-])([O-])O` (configuration not stated)?
**A.** survivor count [18]: 0 of 3; survivor count [19]: 0 of 3

**Q.** With `CCC[CH2][Sn]([S][Sn]([CH2]CCC)([c]1ccccc1)[c]1ccccc1)([c]1ccccc1)[c]1ccccc1` as the compound, how does the survivor count [10] read?
**A.** 1 of 3

**Q.** What does the source list for `OCC1C2CCC(O2)C1CO` (configuration not stated)?
**A.** T/C (dose: 3.0 mg/kg/injection, schedule: Q04DX002 (ip), vehicle: saline): 125 % of control; survivor count [18]: 1 of 3; survivor count [19]: 0 of 3

**Q.** For `COC(=O)C1=C2Nc3ccccc3C23CCN2CC4(CC5CC67CCOC6CCN6CCC8(c9cccc(OC)c9N(C4)C58O)C67)C4OCCC4(C1)C23` (configuration not stated), which T/C [20] is on record?
**A.** 128 % of control

**Q.** With `C[n+]1c(/C=C/c2ccc3cccc(O)c3n2)ccc2cccc(O)c21` as the compound, how does the survivor count (dose: 50.0 mg/kg/injection, schedule: Q01DX009 (ip), vehicle: saline with Tween-80) read?
**A.** 2 of 6

**Q.** And the survivor count (dose: 75.0 mg/kg/injection, schedule: Q04DX003 (ip), vehicle: saline with Tween-80)?
**A.** 5 of 6

**Q.** What about the survivor count (dose: 115.0 mg/kg/injection, schedule: Q04DX003 (ip), vehicle: saline with Tween-80) of the same compound?
**A.** 3 of 6

**Q.** What about the survivor count (dose: 170.0 mg/kg/injection, schedule: Q04DX003 (ip), vehicle: saline with Tween-80) of the same compound?
**A.** 5 of 6

**Q.** For `O=C(CI)Nc1cccc(NC(=O)C(=O)O)c1`, which survivor count (dose: 80.0 mg/kg/injection, schedule: Q04DX003 (ip), vehicle: Klucel (hydroxypropylcellulose) (HPC)) is on record?
**A.** 0 of 6

**Q.** What about the survivor count [20] of the same compound?
**A.** 0 of 6

**Q.** What about the survivor count [15] of the same compound?
**A.** 0 of 6

**Q.** And the survivor count [16]?
**A.** 0 of 6

**Q.** `O=C(O)CCC(=O)CC1CCCCC1` was tested. Which survivor count [1] did it give?
**A.** 2 of 6

**Q.** `O=S(=O)(Nc1nccs1)c1ccc(N=Nc2ccc(O)c3ncccc23)cc1` was tested. Which survivor count [4] did it give?
**A.** 3 of 6

**Q.** `O=[N+]([O-])c1ccccc1N=Nc1c(O)[nH]c2c(Cl)ccc(Cl)c12` was tested. Which survivor count [14] did it give?
**A.** 0 of 6
